No constants are given. Whether binding was seen depends on the method and setting. Binding seen in cells or lysates may run through a third protein. A yes stands for co-enrichment or nearness to the bait. Other partners may have been found.
How the values were obtained:
Test in all cases: proximity labelling; TurboID-fused bait expressed from a centromeric CUP1-promoter plasmid in S. cerevisiae YDK11-5A; 500 μM copper sulphate and 500 μM biotin for 1 h at 30°C; biotinylated proteins purified on streptavidin agarose and identified by LC-MS/MS; enrichment against the GFP-TurboID and NLS-GFP-TurboID type controls
[1] = target: T1, Syo1-TurboID (S. cerevisiae) (UniProt Q07395)
T1 sequence: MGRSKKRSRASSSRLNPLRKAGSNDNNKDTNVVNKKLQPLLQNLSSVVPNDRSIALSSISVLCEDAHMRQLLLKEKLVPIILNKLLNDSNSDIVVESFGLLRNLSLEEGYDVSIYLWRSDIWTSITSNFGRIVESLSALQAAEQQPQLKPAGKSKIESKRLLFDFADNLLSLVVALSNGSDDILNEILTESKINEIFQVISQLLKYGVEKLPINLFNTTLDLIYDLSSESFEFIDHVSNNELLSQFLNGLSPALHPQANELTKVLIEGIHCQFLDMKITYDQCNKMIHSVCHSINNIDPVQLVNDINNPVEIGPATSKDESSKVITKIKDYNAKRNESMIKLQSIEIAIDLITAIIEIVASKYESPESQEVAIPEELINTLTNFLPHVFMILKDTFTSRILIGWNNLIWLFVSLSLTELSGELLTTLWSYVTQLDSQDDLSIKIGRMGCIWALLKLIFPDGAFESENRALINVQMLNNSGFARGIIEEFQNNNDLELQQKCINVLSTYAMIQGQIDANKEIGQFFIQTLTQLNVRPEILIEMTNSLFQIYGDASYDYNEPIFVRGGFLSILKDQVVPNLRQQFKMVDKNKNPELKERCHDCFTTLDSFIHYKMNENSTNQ

Chains of the proteins cited; added tags and fusions are not shown.
UniProt P0CX44: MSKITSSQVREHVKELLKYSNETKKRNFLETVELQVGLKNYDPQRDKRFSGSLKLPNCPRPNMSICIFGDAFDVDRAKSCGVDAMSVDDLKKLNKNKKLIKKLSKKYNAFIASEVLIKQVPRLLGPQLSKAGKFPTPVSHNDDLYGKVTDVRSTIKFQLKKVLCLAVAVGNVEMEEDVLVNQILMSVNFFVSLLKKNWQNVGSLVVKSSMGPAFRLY
UniProt P14126: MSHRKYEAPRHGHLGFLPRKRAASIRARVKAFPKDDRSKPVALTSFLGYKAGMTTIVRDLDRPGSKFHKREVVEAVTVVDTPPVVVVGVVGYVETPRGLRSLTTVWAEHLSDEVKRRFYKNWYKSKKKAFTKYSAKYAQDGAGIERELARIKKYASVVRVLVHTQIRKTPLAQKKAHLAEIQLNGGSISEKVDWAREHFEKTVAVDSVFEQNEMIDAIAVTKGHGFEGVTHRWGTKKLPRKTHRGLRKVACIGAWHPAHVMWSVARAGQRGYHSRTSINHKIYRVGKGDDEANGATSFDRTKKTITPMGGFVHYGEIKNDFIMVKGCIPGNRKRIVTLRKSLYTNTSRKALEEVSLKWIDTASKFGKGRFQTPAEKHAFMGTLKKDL

[2] = target: TurboID-Rpl1b (S. cerevisiae) (UniProt P0CX44)
[3] = target: T2, TurboID-Syo1 (S. cerevisiae) (UniProt Q07395)
T2 sequence: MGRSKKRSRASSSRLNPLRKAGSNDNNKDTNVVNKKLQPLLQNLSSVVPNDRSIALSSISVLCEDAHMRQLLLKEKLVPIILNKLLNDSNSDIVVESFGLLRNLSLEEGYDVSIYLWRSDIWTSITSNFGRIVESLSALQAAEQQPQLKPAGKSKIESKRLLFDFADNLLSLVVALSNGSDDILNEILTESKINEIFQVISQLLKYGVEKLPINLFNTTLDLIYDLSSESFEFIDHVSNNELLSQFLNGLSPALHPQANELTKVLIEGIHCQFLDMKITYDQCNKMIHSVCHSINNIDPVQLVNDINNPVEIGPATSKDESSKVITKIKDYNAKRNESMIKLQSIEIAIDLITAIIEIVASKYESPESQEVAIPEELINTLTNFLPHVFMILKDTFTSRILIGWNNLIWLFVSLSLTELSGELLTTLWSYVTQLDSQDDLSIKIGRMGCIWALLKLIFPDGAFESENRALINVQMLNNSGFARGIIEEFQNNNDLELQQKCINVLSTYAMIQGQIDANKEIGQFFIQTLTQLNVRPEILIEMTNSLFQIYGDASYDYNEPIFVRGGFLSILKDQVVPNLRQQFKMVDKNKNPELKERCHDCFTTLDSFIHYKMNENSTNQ

[4] = target: Rpl3-TurboID (S. cerevisiae) (UniProt P14126)
[5] = target: T3, Bcl1-TurboID (S. cerevisiae) (UniProt P53962)
T3 sequence: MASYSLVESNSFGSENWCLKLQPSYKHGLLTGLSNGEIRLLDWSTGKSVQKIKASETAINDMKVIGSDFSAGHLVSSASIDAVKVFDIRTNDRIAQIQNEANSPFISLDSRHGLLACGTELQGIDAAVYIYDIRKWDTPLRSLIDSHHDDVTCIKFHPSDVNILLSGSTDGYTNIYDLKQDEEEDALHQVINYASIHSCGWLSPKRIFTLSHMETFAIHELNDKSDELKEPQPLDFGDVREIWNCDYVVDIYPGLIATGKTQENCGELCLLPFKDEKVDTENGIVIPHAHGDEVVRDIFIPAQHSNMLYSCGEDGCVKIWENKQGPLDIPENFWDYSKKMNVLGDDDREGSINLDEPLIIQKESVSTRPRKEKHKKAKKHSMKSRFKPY

B1: Kap104 (endogenous) (protein, UniProt P38217 1-918)
chain: MASTWKPAEDYVLQLATLLQNCMSPNPEIRNNAMEAMENFQLQPEFLNYLCYILIEGESDDVLKQHYSLQDLQNNRATAGMLLKNSMLGGNNLIKSNSHDLGYVKSNIIHGLYNSNNNLVSNVTGIVITTLFSTYYRQHRDDPTGLQMLYQLLELTSNGNEPSIKALSKIMEDSAQFFQLEWSGNTKPMEALLDSFFRFISNPNFSPVIRSESVKCINTVIPLQTQSFIVRLDKFLEIIFQLAQNDENDLVRAQICISFSFLLEFRPDKLVSHLDGIVQFMLHLITTVNEEKVAIEACEFLHAFATSPNIPEHILQPYVKDIVPILLSKMVYNEESIVLLEASNDDDAFLEDKDEDIKPIAPRIVKKKEAGNGEDADDNEDDDDDDDDEDGDVDTQWNLRKCSAATLDVMTNILPHQVMDIAFPFLREHLGSDRWFIREATILALGAMAEGGMKYFNDGLPALIPFLVEQLNDKWAPVRKMTCWTLSRFSPWILQDHTEFLIPVLEPIINTLMDKKKDVQEAAISSVAVFIENADSELVETLFYSQLLTSFDKCLKYYKKKNLIILYDAIGRFAEKCALDETAMQIILPPLIEKWALLSDSDKELWPLLECLSCVASSLGERFMPMAPEVYNRAFRILCHCVELEAKSHQDPTIVVPEKDFIITSLDLIDGLVQGLGAHSQDLLFPQGTKDLTILKIMLECLQDPVHEVRQSCFALLGDIVYFFNSELVIGNLEDFLKLIGTEIMHNDDSDGTPAVINAIWALGLISERIDLNTYIIDMSRIILDLFTTNTQIVDSSVMENLSVTIGKMGLTHPEVFSSGAFANDSNWNKWCLSVNALDDVEEKSSAYMGFLKIINLTSTEVTMSNDTIHKIVTGLSSNVEANVFAQEIYTFLMNHSAQISAINFTPDEISFLQQFTS
- binding [1]: binds

B2: Rpf2 (endogenous) (protein, UniProt P36160 1-344)
chain: MIRTVKPKNARAKRALVKREAKLVENVKQALFIPGQSCNKNLHDIMVDLSALKKPDMKRFNRKNDIHPFEDMSPLEFFSEKNDCSLMVLMTSSKKRKNNMTFIRTFGYKIYDMIELMVADNFKLLSDFKKLTFTVGLKPMFTFQGAAFDTHPVYKQIKSLFLDFFRGESTDLQDVAGLQHVISMTIQGDFQDGEPLPNVLFRVYKLKSYKSDQGGKRLPRIELVEIGPRLDFKIGRIHTPSPDMVTEAHKKPKQLEMKTKKNVELDIMGDKLGRIHMGKQDLGKLQTRKMKGLKSKFDQGTEEGDGEVDEDYEDEASYSDDGQEYEEEFVSATDIEPSAKRQKK
- binding [2]: binds
- binding [3]: binds
- binding [1]: binds

B3: Rrs1 (endogenous) (protein, UniProt Q08746 1-203)
chain: MSAEDYKNLPVTVEKPIPVVYDLGNLAAFDSNVLDKNDLDSSNARREEKIKSLTRDNVQLLINQLLSLPMKTTTESVGGTGGQSSVMTLLQLPDPTTDLPREKPLPKAKAMTKWEKFAAKKGIKPKERAGKMIYDEASGEWVPKWGYKGANKKLDDQWLVEVDDKVKGTDNELIDPRTLNRAERKRLVKKNEKQQRRNMKNAL
- binding [2]: binds
- binding [3]: binds
- binding [1]: binds

B4: Nog1 (endogenous) (protein, UniProt Q02892 1-647)
chain: MQLSWKDIPTVAPANDLLDIVLNRTQRKTPTVIRPGFKITRIRAFYMRKVKYTGEGFVEKFEDILKGFPNINDVHPFHRDLMDTLYEKNHYKISLAAISRAKSLVEQVARDYVRLLKFGQSLFQCKQLKRAALGRMATIVKKLRDPLAYLEQVRQHIGRLPSIDPNTRTLLICGYPNVGKSSFLRCITKSDVDVQPYAFTTKSLYVGHFDYKYLRFQAIDTPGILDRPTEEMNNIEMQSIYAIAHLRSCVLYFMDLSEQCGFTIEAQVKLFHSIKPLFANKSVMVVINKTDIIRPEDLDEERAQLLESVKEVPGVEIMTSSCQLEENVMEVRNKACEKLLASRIENKLKSQSRINNVLNKIHVAQPQARDDVKRTPFIPESVKNLKKYDPEDPNRRKLARDIEAENGGAGVFNVNLKDKYLLEDDEWKNDIMPEILDGKNVYDFLDPEIAAKLQALEEEEEKLENEGFYNSDDEEEIYDGFEASEVDDIKEKAAWIRNRQKTMIAEARNRKSLKNKAIMPRSKLTKSFGKMEEHMSTLGHDMSALQDKQNRAARKNRYVERGSDVVFGDQDALTASTENGVKLRQTDRLLDGVADGSMRSKADRMAKMERRERNRHAKQGESDRHNAVSLSKHLFSGKRGVGKTDFR
- binding [4]: binds
- binding [5]: binds

B5: Noc2 (endogenous) (protein, UniProt P39744 1-710)
chain: MGKVSKSTKKFQSKHLKHTLDQRRKEKIQKKRIQGRRGNKTDQEKADAAGTREQQQLKKSAKEEVFKDMSVETFFEKGIEIPKENKKLKKKTTKEQSDEDSSSSEEEEDMGQSMAKLAEKDPEFYKYLEENDKDLLDFAGTNPLDGIDSQDEGEDAERNSNIEEKSEQMELEKEKIELSLKLVRKWKKQLHDSPSLKLLRNIISAFKVAVNLNKEENIEDYKYAITDEKAFHELMFMVLKDVPQAIQKMAPYKIVKGARTLPNGGNVSRVSSIVKSHAGSLLILLNDITNTETAALVLHSVNELMPYLLSYRRILKELIKSIVGVWSTTRELETQIASFAFLINTTKEFKKSMLETTLKTTYSTFIKSCRKTNMRSMPLINFQKNSAAELFGIDEVLGYQVGFEYIRQLAIHLRNTMNATTKKSSKINSAEAYKIVYNWQFCHSLDFWSRVLSFACQPEKENGSESPLRQLIYPLVQVTLGVIRLIPTPQFFPLRFYLIKSLIRLSQNSGVFIPIYPLLSEILTSTAFTKAPKKSPNLAAFDFEHNIKCTQAYLNTKIYQEGLSEQFVDLLGDYFALYCKNIAFPELVTPVIISLRRYIKTSTNVKLNKRLSTVVEKLNQNSTFIQEKRSDVEFGPTNKSEVSRFLNDVAWNKTPLGSYVAVQREVKEEKARLMRESMEEQDKERETEEAKLLNSLESDDDNEDVEMSDA
- binding [5]: binds

B6: Nug1 (endogenous) (protein, UniProt P40010 1-520)
chain: MRVRKRQSRRTSTKLKEGIKKKASAHRKKEKKMAKKDVTWRSRSKKDPGIPSNFPYKAKILEEIEAKKMKDLEERELAKQQRLEARKAAKEQGVDAMDEDMIEDDENGLAALVESAQQAAAEYEGTPSNDADVRDDELDVIDYNIDFYGEDVEGESELEKSRKAYDKIFKSVIDASDVILYVLDARDPESTRSRKVEEAVLQSQGKRLILILNKVDLIPPHVLEQWLNYLKSSFPTIPLRASSGAVNGTSFNRKLSQTTTASALLESLKTYSNNSNLKRSIVVGVIGYPNVGKSSVINALLARRGGQSKACPVGNEAGVTTSLREIKIDNKLKILDSPGICFPSENKKRSKVEHEAELALLNALPAKHIVDPYPAVLMLVKRLAKSDEMTESFKKLYEIPPIPANDADTFTKHFLIHVARKRGRLGKGGIPNLASAGLSVLNDWRDGKILGWVLPNTSAAASQQDKQNLSTINTGTKQAPIAANESTIVSEWSKEFDLDGLFSSLDKAIDASKDQDTMME
- binding [5]: binds
